Reference: patent publication US10465196B2, “Treatment of C9FTD/ALS by targeting RNA expanded repeat sequences” (THE SCRIPPS RESEARCH INSTITUTE, priority 2014, dated 2019)
Some results were stated once for a whole list of compounds, not compound by compound.

Tested on: r(GGGGCC)8
Assay: Biolayer interferometry (BLI) binding affinity, r(GGGGCC)8
Settings: r(GGGGCC)8 folded with additional 100 mM NaCl (favors hairpin) or KCl (favors quadruplex)
Experimental: The RNA (200 μL aliquots) was then added to a black 96-well plate (Greiner Bio-One). […] A sample with no compound was used as background. All experiments were performed at 30° C. with agitation set to 1000 rpm. The biotinylated RNA (ligand) was loaded onto the surface of streptavidin biosensors (SA) for 660 s. […] Biosensors were then washed in 1× Kinetics Buffer for 300 s followed by association of the compound (analyte) for 5000 s. Finally, dissociation of the ligand-analyte interaction was analyzed for 5000 s. The resulting curves were corrected by subtracting the response recorded on a sensor loaded with ligand (RNA) but incubated with no analyte (compound). Data analyses and curve fitting were completed using Octet Data Analysis, version 7.0. Experimental data were fitted using the 2:1 heterogeneous ligand (HL) curve fit. Global analysis of all data sets acquired for different analyte concentrations, assuming reversible binding, was completed using nonlinear least squares fitting. […] [formula] where [Analyte] is the concentration of compound, Req is the estimated response at equilibrium, kon is association constant, koff is dissociation constant.

Compound | weakening of observed Kd in the presence of Na+ and K+
Cc1c2cc[n+](CCN3CCCCC3)cc2c(C)c2c1[nH]c1ccc(O)cc12 [Compound 1a] | 3- to 10 fold
CCN(CC)CCNC(=O)c1cc2cc(NC(=O)c3cc4cc(N)ccc4[nH]3)ccc2[nH]1 [Compound 3] | 3- to 10 fold
